Experimental data as given in article PMC4374139.
No constants are given. Whether binding was seen depends on the method and setting. Binding seen in cells or lysates may run through a third protein.

Sequences of proteins named here, by UniProt entry; tags and fusion partners are left off. A change or cut given only in a name is not applied to a line headed by its entry.
UniProt Q92547: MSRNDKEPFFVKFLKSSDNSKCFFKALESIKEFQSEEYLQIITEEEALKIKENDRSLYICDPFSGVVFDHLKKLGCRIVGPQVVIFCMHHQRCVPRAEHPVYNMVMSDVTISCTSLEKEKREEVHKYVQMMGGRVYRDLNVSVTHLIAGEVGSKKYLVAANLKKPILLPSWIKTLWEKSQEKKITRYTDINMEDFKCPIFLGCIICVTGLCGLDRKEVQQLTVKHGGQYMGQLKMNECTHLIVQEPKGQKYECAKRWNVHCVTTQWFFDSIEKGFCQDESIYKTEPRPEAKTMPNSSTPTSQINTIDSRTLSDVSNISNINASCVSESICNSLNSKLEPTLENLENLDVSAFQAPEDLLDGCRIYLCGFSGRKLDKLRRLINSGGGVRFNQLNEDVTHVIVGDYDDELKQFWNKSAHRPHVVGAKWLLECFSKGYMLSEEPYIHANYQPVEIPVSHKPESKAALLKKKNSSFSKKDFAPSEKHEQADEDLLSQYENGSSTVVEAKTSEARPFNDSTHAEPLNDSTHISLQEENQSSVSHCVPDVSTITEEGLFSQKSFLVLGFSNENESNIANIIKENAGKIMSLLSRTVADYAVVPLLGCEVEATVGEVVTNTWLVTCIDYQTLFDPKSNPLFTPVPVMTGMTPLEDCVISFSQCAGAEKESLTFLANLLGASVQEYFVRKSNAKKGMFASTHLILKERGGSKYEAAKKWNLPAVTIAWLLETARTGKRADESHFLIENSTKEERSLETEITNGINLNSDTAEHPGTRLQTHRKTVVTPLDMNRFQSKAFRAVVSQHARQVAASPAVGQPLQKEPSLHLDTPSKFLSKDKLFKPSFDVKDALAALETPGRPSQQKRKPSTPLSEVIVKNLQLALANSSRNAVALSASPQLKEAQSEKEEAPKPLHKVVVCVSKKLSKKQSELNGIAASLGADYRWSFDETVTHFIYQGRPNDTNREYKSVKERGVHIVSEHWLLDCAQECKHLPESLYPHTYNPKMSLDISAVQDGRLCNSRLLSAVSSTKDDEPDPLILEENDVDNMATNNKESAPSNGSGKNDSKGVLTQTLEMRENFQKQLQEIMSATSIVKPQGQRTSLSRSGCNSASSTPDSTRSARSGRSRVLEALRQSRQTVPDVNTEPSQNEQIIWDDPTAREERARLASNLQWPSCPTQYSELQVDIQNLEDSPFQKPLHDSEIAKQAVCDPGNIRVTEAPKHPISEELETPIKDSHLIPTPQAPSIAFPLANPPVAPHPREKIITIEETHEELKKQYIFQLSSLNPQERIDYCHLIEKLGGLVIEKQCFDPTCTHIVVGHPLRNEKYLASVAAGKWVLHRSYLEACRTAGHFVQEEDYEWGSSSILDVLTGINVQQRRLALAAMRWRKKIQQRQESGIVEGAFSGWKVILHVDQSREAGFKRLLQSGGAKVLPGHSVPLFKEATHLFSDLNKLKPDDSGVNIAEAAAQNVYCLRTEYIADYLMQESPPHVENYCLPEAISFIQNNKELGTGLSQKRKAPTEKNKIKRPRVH
UniProt P54132: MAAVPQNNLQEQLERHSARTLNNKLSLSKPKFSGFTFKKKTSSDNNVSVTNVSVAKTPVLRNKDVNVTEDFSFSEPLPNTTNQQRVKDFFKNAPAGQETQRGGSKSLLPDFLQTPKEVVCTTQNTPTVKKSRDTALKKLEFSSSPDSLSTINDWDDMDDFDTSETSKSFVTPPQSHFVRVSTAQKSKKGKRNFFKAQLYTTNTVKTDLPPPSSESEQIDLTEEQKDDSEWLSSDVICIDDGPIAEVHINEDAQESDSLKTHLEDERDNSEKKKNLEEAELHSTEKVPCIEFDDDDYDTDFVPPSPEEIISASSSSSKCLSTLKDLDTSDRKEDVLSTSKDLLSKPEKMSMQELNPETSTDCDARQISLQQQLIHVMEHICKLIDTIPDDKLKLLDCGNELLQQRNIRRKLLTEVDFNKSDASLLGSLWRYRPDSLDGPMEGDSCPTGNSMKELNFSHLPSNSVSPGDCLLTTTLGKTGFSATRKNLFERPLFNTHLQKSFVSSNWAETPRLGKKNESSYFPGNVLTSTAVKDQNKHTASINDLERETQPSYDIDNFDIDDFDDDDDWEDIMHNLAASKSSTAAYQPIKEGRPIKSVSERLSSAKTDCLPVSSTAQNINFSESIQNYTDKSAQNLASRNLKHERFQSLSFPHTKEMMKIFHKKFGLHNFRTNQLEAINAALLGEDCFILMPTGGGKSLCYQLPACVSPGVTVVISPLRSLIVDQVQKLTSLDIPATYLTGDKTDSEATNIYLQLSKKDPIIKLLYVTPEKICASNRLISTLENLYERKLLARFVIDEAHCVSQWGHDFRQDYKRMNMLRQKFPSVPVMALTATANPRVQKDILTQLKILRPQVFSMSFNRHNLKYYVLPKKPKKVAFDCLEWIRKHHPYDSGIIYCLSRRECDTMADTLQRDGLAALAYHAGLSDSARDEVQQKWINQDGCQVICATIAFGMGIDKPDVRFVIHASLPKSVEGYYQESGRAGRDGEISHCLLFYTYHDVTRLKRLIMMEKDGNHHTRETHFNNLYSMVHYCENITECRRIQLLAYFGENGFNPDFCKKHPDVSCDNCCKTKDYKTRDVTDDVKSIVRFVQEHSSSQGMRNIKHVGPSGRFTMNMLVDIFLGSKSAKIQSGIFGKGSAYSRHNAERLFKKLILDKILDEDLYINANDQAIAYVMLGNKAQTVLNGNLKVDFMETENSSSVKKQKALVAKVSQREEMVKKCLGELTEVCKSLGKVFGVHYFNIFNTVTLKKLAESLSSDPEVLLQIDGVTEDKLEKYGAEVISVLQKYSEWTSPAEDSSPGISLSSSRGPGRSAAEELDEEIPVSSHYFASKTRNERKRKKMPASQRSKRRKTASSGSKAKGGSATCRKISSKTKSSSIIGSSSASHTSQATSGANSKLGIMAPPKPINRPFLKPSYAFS

B1: RMI1 (protein, UniProt Q9H9A7 1-625)
chain: MNVTSIALRAETWLLAAWHVKVPPMWLEACINWIQEENNNVNLSQAQMNKQVFEQWLLTDLRDLEHPLLPDGILEIPKGELNGFYALQINSLVDVSQPAYSQIQKLRGKNTTNDLVTAEAQVTPKPWEAKPSRMLMLQLTDGIVQIQGMEYQPIPILHSDLPPGTKILIYGNISFRLGVLLLKPENVKVLGGEVDALLEEYAQEKVLARLIGEPDLVVSVIPNNSNENIPRVTDVLDPALGPSDEELLASLDENDELTANNDTSSERCFTTGSSSNTIPTRQSSFEPEFVISPRPKEEPSNLSIHVMDGELDDFSLEEALLLEETVQKEQMETKELQPLTFNRNADRSIERFSHNPNTTNNFSLTCKNGNNNWSEKNVSEQMTNEDKSFGCPSVRDQNRSIFSVHCNVPLAHDFTNKEKNLETDNKIKQTSSSDSHSLNNKILNREVVNYVQKRNSQISNENDCNLQSCSLRSSENSINLSIAMDLYSPPFVYLSVLMASKPKEVTTVKVKAFIVTLTGNLSSSGGIWSITAKVSDGTAYLDVDFVDEILTSLIGFSVPEMKQSKKDPLQYQKFLEGLQKCQRDLIDLCCLMTISFNPSLSKAMVLALQDVNMEHLENLKKRLNK
B2: topoisomerase IIIα (TOP3A) (protein, UniProt Q13472 1-1001)
chain: MIFPVARYALRWLRRPEDRAFSRAAMEMALRGVRKVLCVAEKNDAAKGIADLLSNGRMRRREGLSKFNKIYEFDYHLYGQNVTMVMTSVSGHLLAHDFQMQFRKWQSCNPLVLFEAEIEKYCPENFVDIKKTLERETRQCQALVIWTDCDREGENIGFEIIHVCKAVKPNLQVLRARFSEITPHAVRTACENLTEPDQRVSDAVDVRQELDLRIGAAFTRFQTLRLQRIFPEVLAEQLISYGSCQFPTLGFVVERFKAIQAFVPEIFHRIKVTHDHKDGIVEFNWKRHRLFNHTACLVLYQLCVEDPMATVVEVRSKPKSKWRPQALDTVELEKLASRKLRINAKETMRIAEKLYTQGYISYPRTETNIFPRDLNLTVLVEQQTPDPRWGAFAQSILERGGPTPRNGNKSDQAHPPIHPTKYTNNLQGDEQRLYEFIVRHFLACCSQDAQGQETTVEIDIAQERFVAHGLMILARNYLDVYPYDHWSDKILPVYEQGSHFQPSTVEMVDGETSPPKLLTEADLIALMEKHGIGTDATHAEHIETIKARMYVGLTPDKRFLPGHLGMGLVEGYDSMGYEMSKPDLRAELEADLKLICDGKKDKFVVLRQQVQKYKQVFIEAVAKAKKLDEALAQYFGNGTELAQQEDIYPAMPEPIRKCPQCNKDMVLKTKKNGGFYLSCMGFPECRSAVWLPDSVLEASRDSSVCPVCQPHPVYRLKLKFKRGSLPPTMPLEFVCCIGGCDDTLREILDLRFSGGPPRASQPSGRLQANQSLNRMDNSQHPQPADSRQTGSSKALAQTLPPPTAAGESNSVTCNCGQEAVLLTVRKEGPNRGRQFFKCNGGSCNFFLWADSPNPGAGGPPALAYRPLGASLGCPPGPGIHLGGFGNPGDGSGSGTSCLCSQPSVTRTVQKDGPNKGRQFHTCAKPREQQCGFFQWVDENTAPGTSGAPSWTGDRGRTLESEARSKRPRASSSDMGSTAKKPRKCSLCHQPGHTRPFCPQNR
B3: RMI2 (protein, UniProt Q96E14 1-147)
chain: MAAAADSFSGGPAGVRLPRSPPLKVLAEQLRRDAEGGPGAWRLSRAAAGRGPLDLAAVWMQGRVVMADRGEARLRDPSGDFSVRGLERVPRGRPCLVPGKYVMVMGVVQACSPEPCLQAVKMTDLSDNPIHESMWELEVEDLHRNIP

Biological target: TopBP1 BRCT5 mutant of Figure 1F (UniProt Q92547)
Test: co-IP; pull-down of GFP-tagged TopBP1 or BLM constructs (GFP-Trap agarose) from lysates of transiently transfected 293FT cells, 24 hr after transfection; also cells synchronized in S phase (Figure S3A); Benzonase-treated lysate, 200 mM NaCl, 2 mM EDTA, 4°C; western blot

binding, no binding:
Bloom syndrome helicase BLM, endogenous (from UniProt P54132 1-1417)
B1
B2
B3
